No constants are given. Whether binding was seen depends on the method and setting. In cells and extracts the contact can be indirect. Some results given as binding are weak or reduced against the parent protein; the word gives no strength. Sequences can lack the tags named with a protein.
Columns and labels:
[1] = target: T1, FLAG-TRAF6 (wild-type, full-length murine TRAF6) (murine) (UniProt P70196); test: co-IP; 293T cells co-transfected with equal amounts (1 µg) of FLAG-TRAF6 construct and Myc-tagged partner; lysis buffer 20 mM HEPES pH 7.5, 150 mM NaCl, 10% glycerol, 0.5% NP-40; IP with anti-FLAG agarose, 3 hours at 4°C, washed 3x; immunoblot with anti-Myc
T1 sequence: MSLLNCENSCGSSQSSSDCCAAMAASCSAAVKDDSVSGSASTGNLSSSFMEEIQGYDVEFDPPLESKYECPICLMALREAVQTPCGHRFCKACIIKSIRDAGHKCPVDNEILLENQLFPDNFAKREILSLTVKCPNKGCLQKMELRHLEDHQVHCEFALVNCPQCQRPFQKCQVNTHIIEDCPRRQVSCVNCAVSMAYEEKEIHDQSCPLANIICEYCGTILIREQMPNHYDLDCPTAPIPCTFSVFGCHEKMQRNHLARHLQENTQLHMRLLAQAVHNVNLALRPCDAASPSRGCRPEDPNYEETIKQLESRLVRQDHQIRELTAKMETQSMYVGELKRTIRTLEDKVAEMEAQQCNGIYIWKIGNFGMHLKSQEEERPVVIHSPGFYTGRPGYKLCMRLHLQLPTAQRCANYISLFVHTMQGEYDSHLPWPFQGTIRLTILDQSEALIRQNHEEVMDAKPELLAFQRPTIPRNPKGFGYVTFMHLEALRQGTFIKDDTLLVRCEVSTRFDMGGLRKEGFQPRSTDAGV

[2] = target: T2, FLAG-TRAF6 C85A/H87A (full-length RING finger mutant) (murine) (UniProt P70196); test: as above
T2 sequence: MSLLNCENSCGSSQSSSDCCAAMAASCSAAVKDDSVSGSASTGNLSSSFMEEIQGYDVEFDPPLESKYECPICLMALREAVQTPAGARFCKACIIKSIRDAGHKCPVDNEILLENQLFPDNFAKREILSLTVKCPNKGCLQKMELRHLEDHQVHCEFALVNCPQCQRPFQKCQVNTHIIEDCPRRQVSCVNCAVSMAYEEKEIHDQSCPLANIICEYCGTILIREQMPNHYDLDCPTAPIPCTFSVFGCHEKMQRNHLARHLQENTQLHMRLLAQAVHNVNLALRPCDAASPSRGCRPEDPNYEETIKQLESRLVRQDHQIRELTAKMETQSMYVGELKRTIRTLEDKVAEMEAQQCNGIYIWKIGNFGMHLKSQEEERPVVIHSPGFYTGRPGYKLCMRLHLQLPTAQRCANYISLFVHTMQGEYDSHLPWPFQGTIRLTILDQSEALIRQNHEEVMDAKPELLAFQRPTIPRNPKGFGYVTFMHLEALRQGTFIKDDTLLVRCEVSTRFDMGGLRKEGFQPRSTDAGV

binding [1]: binds | binding [2]: binds
B1: Myc-tagged TAK1 (enzyme, UniProt Q62073 1-579)
chain: MSTASAASSSSSSSASEMIEAPSQVLNFEEIDYKEIEVEEVVGRGAFGVVCKAKWRAKDVAIKQIESESERKAFIVELRQLSRVNHPNIVKLYGACLNPVCLVMEYAEGGSLYNVLHGAEPLPYYTAAHAMSWCLQCSQGVAYLHSMQPKALIHRDLKPPNLLLVAGGTVLKICDFGTACDIQTHMTNNKGSAAWMAPEVFEGSNYSEKCDVFSWGIILWEVITRRKPFDEIGGPAFRIMWAVHNGTRPPLIKNLPKPIESLMTRCWSKDPSQRPSMEEIVKIMTHLMRYFPGADEPLQYPCQYSDEGQSNSATSTGSFMDIASTNTSNKSDTNMEQVPATNDTIKRLESKLLKNQAKQQSESGRLSLGASRGSSVESLPPTSEGKRMSADMSEIEARIVATAGNGQPRRRSIQDLTVTGTEPGQVSSRSSSPSVRMITTSGPTSEKPARSHPWTPDDSTDTNGSDNSIPMAYLTLDHQLQPLAPCPNSKESMAVFEQHCKMAQEYMKVQTEIALLLQRKQELVAELDQDEKDQQNTSRLVQEHKKLLDENKSLSTYYQQCKKQLEVIRSQQQKRQGTS

— article PMC2603309
